The series is described as follows: general procedure: peptide synthesis; HATU/DIPEA. Conditions: late stage modification step, TFA salt.

Take “N-[2-(1-aminocyclohexyl)ethyl] Polymyxin B nonapeptide”: the step yield was determined as 62%.

For the origin of these results see patent publication US10407467B2 (priority 2013, dated 2019).
